{
  "source": "the supplement of paper PMC4604168 (melanoma cell lines)",
  "note": "Some of the results follow. Many values rest on one well or one pass, so single values are uncertain.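 The apoptosis fraction was the count of cleaved-PARP antibody-stained nuclei relative to all DNA-stained nuclei, imaged in 1,536-well plates. Screening doses were set so most cells survived, and baseline and induced cleaved-PARP levels vary greatly across cell lines.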",
  "data": [
    {"system": "COLO800", "experiment": "cleaved PARP positive nuclei fraction relative to DMSO control; melanoma cells; higher = more apoptosis", "conditions": "library dose: low library concentration; 72 h", "units": {"cleaved PARP positive nuclei fraction": "%"}, "values": [
      {"smiles": "Cc1cc(Nc2cc(N3CCN(C)CC3)nc(Sc3ccc(NC(=O)C4CC4)cc3)n2)n[nH]1", "note": "[Tozasertib] + Cc1cc(Nc2cc(N3CCN(C)CC3)nc(/C=C/c3ccccc3)n2)n[nH]1 [ENMD2076] (first compound 0.006 µM, partner dose 0.04 µM)", "cleaved PARP positive nuclei fraction": 78.9},
      {"smiles": "O=C(Nc1cc(C(F)(F)F)cc(C(F)(F)F)c1)c1cc(Cl)ccc1O", "note": "+ C[C@]1(c2nc3c(C(N)=O)cccc3[nH]2)CCCN1 [Veliparib] (first compound 0.016 µM, partner dose 1.4 µM)", "cleaved PARP positive nuclei fraction": 79.3},
      {"smiles": "O=C(Nc1cc(C(F)(F)F)cc(C(F)(F)F)c1)c1cc(Cl)ccc1O", "note": "+ Nc1ncn([C@H]2C[C@H](O)[C@@H](CO)O2)c(=O)n1 [decitabine] (first compound 0.016 µM, partner dose 0.1 µM)", "cleaved PARP positive nuclei fraction": 114},
      {"smiles": "CC[C@]1(O)C[C@H]2CN(CCc3c([nH]c4ccccc34)[C@@](C(=O)OC)(c3cc4c(cc3OC)N(C=O)[C@H]3[C@@](O)(C(=O)OC)[C@H](OC(C)=O)[C@]5(CC)C=CCN6CC[C@]43[C@@H]65)C2)C1", "note": "[vincristine] + Cn1c(Nc2ccc(C(F)(F)F)cc2)nc2cc(Oc3ccnc(-c4ncc(C(F)(F)F)[nH]4)c3)ccc21 [CHIR265] (first compound 0.0001 µM, partner dose 0.08 µM)", "cleaved PARP positive nuclei fraction": 156},
      {"smiles": "Cc1cc(Nc2cc(N3CCN(C)CC3)nc(Sc3ccc(NC(=O)C4CC4)cc3)n2)n[nH]1", "note": "[Tozasertib] + N#CC[C@H](C1CCCC1)n1cc(-c2ncnc3[nH]ccc23)cn1 [ruxolitinib] (first compound 0.006 µM, partner dose 1 µM)", "cleaved PARP positive nuclei fraction": 119},
      {"smiles": "CC[C@]1(O)C[C@H]2CN(CCc3c([nH]c4ccccc34)[C@@](C(=O)OC)(c3cc4c(cc3OC)N(C=O)[C@H]3[C@@](O)(C(=O)OC)[C@H](OC(C)=O)[C@]5(CC)C=CCN6CC[C@]43[C@@H]65)C2)C1", "note": "[vincristine] + C=C(c1ccc(C(=O)O)cc1)c1cc2c(cc1C)C(C)(C)CCC2(C)C [Bexarotene] (first compound 0.0001 µM, partner dose 2 µM)", "cleaved PARP positive nuclei fraction": 140},
      {"smiles": "O=C(/C=C/c1cccnc1)NCCCCC1CCN(C(=O)c2ccccc2)CC1", "note": "+ C#Cc1cccc(Nc2ncnc3cc(OCCOC)c(OCCOC)cc23)c1 [erlotinib] (first compound 0.01 µM, partner dose 0.8 µM)", "cleaved PARP positive nuclei fraction": 208},
      {"smiles": "Cc1cn(-c2cc(NC(=O)c3ccc(C)c(Nc4nccc(-c5cccnc5)n4)c3)cc(C(F)(F)F)c2)cn1", "note": "[nilotinib] + CO[C@H]1C[C@@H]2CC[C@@H](C)[C@@](O)(O2)C(=O)C(=O)N2CCCC[C@H]2C(=O)O[C@H]([C@H](C)C[C@@H]2CC[C@@H](OCCO)[C@H](OC)C2)CC(=O)[C@H](C)/C=C(\\C)[C@@H](O)[C@@H](OC)C(=O)[C@H](C)C[C@H](C)/C=C/C=C/C=C/1C [everolimus] (first compound 0.2 µM, partner dose 0.02 µM)", "cleaved PARP positive nuclei fraction": 54.7},
      {"smiles": "O=C(Nc1cc(C(F)(F)F)cc(C(F)(F)F)c1)c1cc(Cl)ccc1O", "note": "+ Cn1c(Nc2ccc(C(F)(F)F)cc2)nc2cc(Oc3ccnc(-c4ncc(C(F)(F)F)[nH]4)c3)ccc21 [CHIR265] (first compound 0.016 µM, partner dose 0.08 µM)", "cleaved PARP positive nuclei fraction": 56.7},
      {"smiles": "O=c1[nH]nc(Sc2ncc([N+](=O)[O-])s2)n1-c1ccc2c(c1)OCCO2", "note": "+ OCc1c[nH]c2ccccc12 [Indole-3-carbinol] (first compound 0.2 µM, partner dose 0.8 µM)", "cleaved PARP positive nuclei fraction": 127},
      {"smiles": "O=C(/C=C/c1cccnc1)NCCCCC1CCN(C(=O)c2ccccc2)CC1", "note": "+ CO[C@H]1C[C@@H]2CC[C@@H](C)[C@@](O)(O2)C(=O)C(=O)N2CCCC[C@H]2C(=O)O[C@H]([C@H](C)C[C@@H]2CC[C@@H](OCCO)[C@H](OC)C2)CC(=O)[C@H](C)/C=C(\\C)[C@@H](O)[C@@H](OC)C(=O)[C@H](C)C[C@H](C)/C=C/C=C/C=C/1C [everolimus] (first compound 0.01 µM, partner dose 0.02 µM)", "cleaved PARP positive nuclei fraction": 98.5},
      {"smiles": "O=c1[nH]nc(Sc2ncc([N+](=O)[O-])s2)n1-c1ccc2c(c1)OCCO2", "note": "+ CS(=O)(=O)CCNCc1ccc(-c2ccc3ncnc(Nc4ccc(OCc5cccc(F)c5)c(Cl)c4)c3c2)o1 [lapatinib] (first compound 0.2 µM, partner dose 0.8 µM)", "cleaved PARP positive nuclei fraction": 147},
      {"smiles": "COc1cc([C@@H]2c3cc4c(cc3[C@@H](O[C@@H]3O[C@@H]5CO[C@@H](C)O[C@H]5[C@H](O)[C@H]3O)[C@H]3COC(=O)[C@H]23)OCO4)cc(OC)c1O", "note": "[etoposide] + CO[C@H]1C[C@@H]2CC[C@@H](C)[C@@](O)(O2)C(=O)C(=O)N2CCCC[C@H]2C(=O)O[C@H]([C@H](C)C[C@@H]2CC[C@@H](OCCO)[C@H](OC)C2)CC(=O)[C@H](C)/C=C(\\C)[C@@H](O)[C@@H](OC)C(=O)[C@H](C)C[C@H](C)/C=C/C=C/C=C/1C [everolimus] (first compound 0.02 µM, partner dose 0.02 µM)", "cleaved PARP positive nuclei fraction": 17.7},
      {"smiles": "Cc1cn(-c2cc(NC(=O)c3ccc(C)c(Nc4nccc(-c5cccnc5)n4)c3)cc(C(F)(F)F)c2)cn1", "note": "[nilotinib] + Nc1cccc2c1CN(C1CCC(=O)NC1=O)C2=O [lenalidomide] (first compound 0.2 µM, partner dose 1 µM)", "cleaved PARP positive nuclei fraction": 193},
      {"smiles": "Cc1ccc(Nc2nccc(N(C)c3ccc4c(C)n(C)nc4c3)n2)cc1S(N)(=O)=O", "note": "[Pazopanib] + CNC(=O)c1cc(Oc2ccc(NC(=O)Nc3ccc(Cl)c(C(F)(F)F)c3)cc2)ccn1 [sorafenib] (first compound 0.4 µM, partner dose 0.4 µM)", "cleaved PARP positive nuclei fraction": 144},
      {"smiles": "O=c1[nH]nc(Sc2ncc([N+](=O)[O-])s2)n1-c1ccc2c(c1)OCCO2", "note": "+ CS(=O)(=O)c1ccc(C(=O)Nc2ccc(Cl)c(-c3ccccn3)c2)c(Cl)c1 [vismodegib] (first compound 0.2 µM, partner dose 1 µM)", "cleaved PARP positive nuclei fraction": 36.6}
    ]}
  ]
}
